In paper PMC4395284:
Results are given in words; binding and its absence hold for the method and conditions named. In cells and extracts the contact can be indirect. These calls come from enrichment with a bait or labelling near it, and not all partners need be listed. One block for each molecule: values may come before it.

Amino acid sequences for entries named in this document (tags omitted).
UniProt O54803: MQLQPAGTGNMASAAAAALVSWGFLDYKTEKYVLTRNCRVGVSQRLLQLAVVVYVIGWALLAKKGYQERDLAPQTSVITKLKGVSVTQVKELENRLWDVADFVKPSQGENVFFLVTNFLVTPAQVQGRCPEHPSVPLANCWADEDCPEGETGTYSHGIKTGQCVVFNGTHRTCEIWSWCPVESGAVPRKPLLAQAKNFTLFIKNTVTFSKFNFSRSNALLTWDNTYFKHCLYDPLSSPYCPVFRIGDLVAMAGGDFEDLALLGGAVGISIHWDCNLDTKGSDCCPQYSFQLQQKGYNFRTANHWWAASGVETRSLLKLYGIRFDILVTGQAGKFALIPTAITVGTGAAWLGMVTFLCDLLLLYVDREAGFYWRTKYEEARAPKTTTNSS

Target: P2X6 subunit (native, mouse hippocampus) (mouse (endogenous in hippocampus)) (UniProt O54803)
Assay: affinity purification with mass spectrometry; nuclear extracts of adult mouse hippocampus immunoprecipitated with anti-P2X6 antibody or IgG on MagSi-ProteinG beads; eluate resolved on a 2D gel, spots identified by MALDI-TOF/TOF

- binding: binds
Molecule: spectrin α2 (from UniProt P16546 1-2472)

- binding: binds
B1: splicing factor 3 subunit A1 (SF3A1), mouse hippocampus (protein, UniProt Q8K4Z5 1-791)
chain: MQAGPVQAVPPPPPVATESKQPIEEEASSKEDPTPSKPVVGIIYPPPEVRNIVDKTASFVARNGPEFEARIRQNEINNPKFNFLNPNDPYHAYYRHKVSEFKEGKAQEPSAAIPKVMQQQQQATQQQLPQKVQAQVIQETIVPKEPPPEFEFIADPPSISAFDLDVVKLTAQFVARNGRQFLTQLMQKEQRNYQFDFLRPQHSLFNYFTKLVEQYTKILIPPKGLFSKLKKEAENPREVLDQVCYRVEWAKFQERERKKEEEEKEKERVAYAQIDWHDFVVVETVDFQPNEQGNFPPPTTPEELGARILIQERYEKFGESEEVEMEVESDEEDQEKAEETPSQLDQDTQVQDMDEGSDDEEEGQKVPPPPETPMPPPLPPTPDQVIVRKDYDPKASKPLPPAPAPDEYLVSPITGEKIPASKMQEHMRIGLLDPRWLEQRDRSIREKQSDDEVYAPGLDIESSLKQLAERRTDIFGVEETAIGKKIGEEEIQKPEEKVTWDGHSGSMARTQQAAQANITLQEQIEAIHKAKGLVPEDDTKEKIGPSKPNEIPQQPPPPSSATNIPSSAPPITSVPRPPAMPPPVRTTVVSAVPVMPRPPMASVVRLPPGSVIAPMPPIIHAPRINVVPMPPAAPPIMAPRPPPMIVPTAFVPAPPVAPVPAPAPMPPVHPPPPMEDEPPSKKLKTEDSLMPEEEFLRRNKGPVSIKVQVPNMQDKTEWKLNGQGLVFTLPLTDQVSVIKVKIHEATGMPAGKQKLQYEGIFIKDSNSLAYYNMASGAVIHLALKERGGRKK
